According to patent US20220033501A1:
No constants are given. Whether binding was seen depends on the method and setting. Some binding calls cover weakened binding; strength is not graded here.

T1: human TIM-3 ECD (antigen protein of the antibody affinity test) (human) (UniProt Q8TDQ0)
T1 sequence: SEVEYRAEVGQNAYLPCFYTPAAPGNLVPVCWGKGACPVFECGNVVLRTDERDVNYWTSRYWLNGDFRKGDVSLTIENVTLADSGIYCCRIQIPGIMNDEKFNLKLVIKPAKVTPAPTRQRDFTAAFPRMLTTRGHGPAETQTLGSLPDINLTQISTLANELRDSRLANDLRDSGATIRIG

B1: 7A4F10 fully human TIM-3 antibody (human IgG4, kappa) (antibody, V domains shown)
VH: EVQLLESGGGLVQPGGSLRLSCAASGFTFRTHLISWVRQAPGKGLEWVAAITGSGGSTYYADSVKGRFIISRDNSKNTLFLQMNSLRAEDTAVYYCAKDGGSGSYDDFWGQGTLVTVSS
VL: ETVLTQSPVTLSLSPGERATLSCRASQSVGSYLAWYQQKPGQAPRLLIYDASNRATGIPARFSGSGSGTDFTLTISSLEPEDFAVYYCQQRSNWPPTFGQGTKVEIK
B2: 18D2H2 fully human TIM-3 antibody (human IgG4, kappa) (antibody, V domains shown)
VH: EVQLVESGGDLVQPGGSLRLSCAASGFTFSTYWMTWVRQAPGRGLEWVANIKQDGSAKYYVDSVKGRFTLSRDDAKNSLYLQMNSLRAEDTAVYYCARGSNWFDYWGQGTLVTVSS
VL: ETVMTQSPATLSVSPGERATLSCRANQNVYSNLAWYQQKPGQAPRLLIYDASTRATGFPARFSGSGSGTEFTLTISSLQSEDFAVYYCQQYNNWPLTFGGGTKVEIK
B3: 34B6D8 fully human TIM-3 antibody (human IgG4, kappa) (antibody, V domains shown)
VH: EVQLVESGGGLVQPGGSLRLSCAASGFTFSTYWMTWVRQAPGKRLEWVANIKQGGGDKYYVDSVKGRFTISTDNAKNSLYLQMNSLRAEDTAVYYCARGSNWFDPWGQGTLVTVSS
VL: EIVMTQSPATLSMSPGERATLSCRASQSVYDNLAWYQQKPGQAPRLLIYGASTRATGIPARFSGSGSGTEFTLTISSLQSEDFALYYCQQYTHWPITFGQGTRLEIK
B4: 39E5H1 fully human TIM-3 antibody (human IgG4, kappa) (antibody, V domains shown)
VH: EVQLVESGGGLVQPGGSLRLSCAASGFTFSSYWMSWVRQAPGKGLEWVANIKRGGSERYYVDSVKGRFTISGDNAKNSVYLQMNSLRAEDTAVYYCARGSNWFDPWGQGTLVTVSS
VL: ETVMTQSPAILSVSPGERATLSCRASQSVYSNLAWYQQKLGQAPRLLIYDASTRATGIPARFSGSGSGTEFTLTISSLQSEDFAVYYCQQYNNWPITFGQGTRLEIK
B5: 57F4E5 fully human TIM-3 antibody (human IgG4, kappa) (antibody, V domains shown)
VH: EVQLVESGGGLVQPGGSLRLSCAASGFTFSSYWMSWVRQAPGKGLEWVANIKQDGSEKYYVDSVKGRFTISRDSAKNSLYLQMNSLRAEDTAMYFCARDSNFFDYWGQGTLVTVSS
VL: ETVMTQSPATLSVSPGERATLSCRASQSVSSNLAWYQRKPGQAPRLLIYFSSTRATGIPARFSGSGSGTEFTLTISSLQSEDFAVYYCQQYNNWPLTFGGGTKVEIK
B6: 134H3G6 fully human TIM-3 antibody (human IgG4, kappa) (antibody, V domains shown)
VH: EVQLVESGGGLVQPGGSLRLSCAASGFTFSNSWMTWVRQAPGKGLEWVANIKQAGTEKYYVDSVKGRFTISRDNAKNSLYLQMNSLRAEDTAVYYCNSGSNYFDYWGQGTLVTVSS
VL: EIVMTQSPATLSVSPGERATLSCRARQNFYSNLAWYQQKPGQAPRLLIYGASTRATGIPARFSGSGSGTEFTLTISSLQSEDFAVYYCQQYNNWPLTFGGGTKVEIK

These binders were tested against T1, human TIM-3 ECD (antigen protein of the antibody affinity test) (human) (assay: BLI, antibody on AHC sensor, antigen in solution).

binding, binds:
B1, B2, B3, B4, B5, B6
